{"source": "PubChem BioAssay AID1508600", "about": "(Functional Genomics Laboratory (NCATS/FGL), 2020)", "note": "The campaign covered roughly 53,000 sequences. About 3,700 (7%) were called active.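 How the source made its calls: active means gene knockdowns whose robust z-score for IL-1 alpha signal is at least 2 or at most -2, so actives lie on both sides; inactive means the rest.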 Some of the results follow.", "data": [{"test": "Components of the Cytosolic LPS Sensing Pathway: Gene Identification via Genome-wide siRNA Screen;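 further: robust z of the log signal after scaling to non-targeting control siRNA wells of the plate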", "conditions": "RAW264.7 macrophages, IL-1a HTRF, actives lie on both sides, screened at 100 nM (by protocol), cells primed 5 h with Pam3CSK4 first", "in_short": "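Three distinct siRNAs per gene were tested singly at 100 nM in RAW264.7 macrophages. Following Pam3CSK4 priming and 24 hour LipidA transfection, IL-1a secretion was read by HTRF.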", "values": [{"sequence": "CCCUCUACACUAUACCACATT against Olfr347", "z-score": "inactive: -0.498"}, {"sequence": "GGAGCUGUGAGCAUUACUGTT against Cenpm", "z-score": "inactive: -1.89"}, {"sequence": "GGUUGUGCUGAUAUUUUACTT against Lmbr1l", "z-score": "inactive: 0.248"}, {"sequence": "GGGAUAAAAACCAUGGUUUTT against Pramel27", "z-score": "inactive: 0.113"}, {"sequence": "GCGUGGUGUAUUUGAAUCATT against Ch25h", "z-score": "active: 2.31"}, {"sequence": "GGUAGUGAAAAUGAAGAGUTT against Gtf2h1", "z-score": "inactive: 0.892"}, {"sequence": "GCAUUCAAUUCUCUAUGGUTT against Cybc1", "z-score": "inactive: 0.674"}, {"sequence": "GGUGUUUGAAAAGAAGAACTT against Tmcc2", "z-score": "inactive: 0.71"}, {"sequence": "GGGUUUUGCCUUUGUCUAUTT against Supt4a", "z-score": "inactive: -0.517"}, {"sequence": "GGUUGCCAUAGCUUCUCGGTT against Abcg1", "z-score": "inactive: -1.1"}, {"sequence": "CCAAGUACUUGAGAGAGACTT against Creb3l1", "z-score": "inactive: -1.06"}, {"sequence": "GGCGAGGUACUUCCUACCUTT against Nipa1", "z-score": "inactive: 1.28"}, {"sequence": "CCACCUCAAGAUAUGGAUGTT against Ppp6r3", "z-score": "inactive: -0.201"}, {"sequence": "GCAUCAAUAUCAUUAUUCCTT against Olfr917", "z-score": "inactive: -0.356"}, {"sequence": "GGACCUUAAGAGAUAUCAATT against Acsm4", "z-score": "active: 2.9"}, {"sequence": "CCUUCAUGAGUCCUCUUCATT against Gaa", "z-score": "active: -2.08"}, {"sequence": "CGAAUGCUUAUUUAGGUUGTT against Kpna4", "z-score": "inactive: -0.387"}, {"sequence": "GGUGAAAAGAUCAGAAUACTT against Fahd1", "z-score": "inactive: -1.03"}, {"sequence": "CCUUGUGUCACUACCCACATT against Nr5a1", "z-score": "inactive: -1.22"}, {"sequence": "GCACACAUGUAGUCUUAUATT against Hars2", "z-score": "inactive: -0.196"}, {"sequence": "GGGUUGAUUGACGAAGCCATT against Fga", "z-score": "inactive: -1.75"}, {"sequence": "CGGCACCUAUGAGUCUUACTT against Cyp4x1", "z-score": "active: 2.13"}, {"sequence": "CCCUCAUAGUAACAGGAUGTT against Gm5069", "z-score": "inactive: 1.24"}, {"sequence": "GGUCUGAUAACUCUGGAGGTT against Snf8", "z-score": "inactive: -0.0859"}, {"sequence": "CGAGCACCUAUUCAUCAUATT against Tdo2", "z-score": "inactive: 0.889"}, {"sequence": "GCAUGAUGUGGAGACAAGATT against Lce3b", "z-score": "inactive: 0.295"}, {"sequence": "GGUGAUCCUCAUAUUGGCCTT against Npy2r", "z-score": "inactive: -0.521"}, {"sequence": "CCUAUUUUUUCUCCACUGATT against Sntg1", "z-score": "inactive: -0.533"}, {"sequence": "GGAUUAGGAAACGUGUAUUTT against Kdm3b", "z-score": "inactive: -1.11"}, {"sequence": "GCGUAUAUAAUUGAGGACUTT against Zfhx4", "z-score": "inactive: -0.166"}, {"sequence": "GGAGUUCCUUCAGCAAUAUTT against Sdad1", "z-score": "inactive: -0.281"}, {"sequence": "GGACUUAGAUCGGAUCAGUTT against Mdm1", "z-score": "inactive: -1.53"}, {"sequence": "GGUGACUAGAAAAAUGGAUTT against Cd1d1", "z-score": "inactive: 0.528"}, {"sequence": "GGACAGUAUGGAAAAGUAUTT against Map3k4", "z-score": "inactive: -0.529"}, {"sequence": "AGGGCACAAAAGGUGACAATT against Rph3al", "z-score": "inactive: -0.887"}, {"sequence": "GCUUAGCCUCGGAAUGUGGTT against Trappc6a", "z-score": "inactive: 0.139"}, {"sequence": "GGUACUUAUGUGGAUUGGATT against Rint1", "z-score": "inactive: -0.272"}, {"sequence": "CCAUUGCUGUUGUGGUUGATT against H2-Q7", "z-score": "inactive: 0.277"}, {"sequence": "GGACAUGAAGUUGUGUGAGTT against Trim26", "z-score": "inactive: -0.243"}, {"sequence": "GGUGAAACUAAAAAUGGUCTT against Egfl6", "z-score": "inactive: -1.07"}, {"sequence": "GGCUAUGCAGCAUAUUAUATT against Ndufa1", "z-score": "inactive: 1.22"}, {"sequence": "GCAAACCUGAAGUUUAUGATT against Rps19bp1", "z-score": "inactive: -0.321"}, {"sequence": "GCACUGAACUUUCCUGACCTT against Ppdpf", "z-score": "inactive: 1.78"}, {"sequence": "UAAGGCCAUCUAGUGGAGATT against C8g", "z-score": "inactive: -0.199"}, {"sequence": "GGACUUUAUUGAAAAUCUGTT against Zfp365", "z-score": "inactive: 0.593"}, {"sequence": "GCUACAAGCGAUAUAUUCCTT against Jak1", "z-score": "inactive: 1.8"}, {"sequence": "GCCUUUCCACCGAUGAAAUTT against Dpyd", "z-score": "inactive: -0.473"}, {"sequence": "GGAAUCAUUUGAAUCAGGATT against Swt1", "z-score": "inactive: -0.592"}, {"sequence": "GGGCUGUUUAACAAGAUCATT against Mthfsd", "z-score": "inactive: 1.51"}, {"sequence": "GCUCAAUUGUUCUUCUUUUTT against Olfr806", "z-score": "inactive: -1.13"}, {"sequence": "CGACUAUUUGGGUGGCAAGTT against Scin", "z-score": "inactive: -0.103"}, {"sequence": "GGCAUUCAGAAACAUGGUUTT against Esx1", "z-score": "inactive: -1.5"}, {"sequence": "GCUCUUAAUCCUAUCUAUCTT against Rgs9bp", "z-score": "inactive: 0.0012"}, {"sequence": "GCCACUACUUAGUGUCUUCTT against Plcd1", "z-score": "inactive: 0.0041"}]}]}
